From patent US20170081382A1
No constants are given. Whether binding was seen depends on the method and setting. Some binding calls cover weakened binding; strength is not graded here. Tags and fused reporters may be left off the sequences shown.

Sequences of proteins named here, by UniProt entry; tags and fusion partners are left off. Residues count along the entry.
UniProt P01589, residues 22-272: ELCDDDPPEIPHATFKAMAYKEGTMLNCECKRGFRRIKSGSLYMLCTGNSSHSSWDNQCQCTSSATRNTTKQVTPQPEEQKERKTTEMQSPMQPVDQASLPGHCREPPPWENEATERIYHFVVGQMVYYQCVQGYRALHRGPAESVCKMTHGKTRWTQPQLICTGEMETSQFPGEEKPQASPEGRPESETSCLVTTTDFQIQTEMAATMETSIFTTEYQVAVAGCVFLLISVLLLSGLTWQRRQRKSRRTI

Target: CD25 (IL-2Rα) on the surface of activated T cells (UniProt P01589)
Assay: binding to cell surface CD25; method not detailed

binding: binds
B1: IL-2 mutein haD5 fused to the amino terminus of Fc, separated by a GGGGS linker (Fc fusion, not shown: a dimerising Fc or GST; small tags and cut ends)
chain: APTSSSTKKTQLQLQNLLLDLQMILNGISNHKNPRLARMLTFKFYMPEKATELKHLQCLEEELKPLEEALRLAPSKNFHLRPRDLISDINVIVLELKGSETTFMCEYADETATIVEFLNRWITFSQSIISTLTGGGGS
